The values below are quoted from earlier work in US20250361227A1, “INHIBITORS OF FLI1 AND ERG” (UNIVERSITY OF VIRGINIA PATENT FOUNDATION, priority 2022, published 2025).

For the data set, the system named is DNA. The conditions noted are these: cited from earlier work; for Stoichiometry / ΔG / ΔH / −TΔS: ITC, ERG construct binding to DNA, ±SE in cell beside; for Fold Inhibition: relative inhibition of DNA binding of ERG truncation constructs.

B1: 272-378: ERG truncation construct, residues 272-378 (protein, UniProt P11308 272-378, looked up, fragment)
chain: AAQPSPSTVPKTEDQRPQLDPYQILGPTSSRLANPGSGQIQLWQFLLELLSDSSNSSCITWEGTNGEFKMTDPDEVARRWGERKSKPNMNYDKLSRALRYYYDKNIM
Take B1: the Stoichiometry is on record as 0.99, the ΔG is -9914 cal/mol, the ΔH was 4731 cal/mol and the “−TΔS” value was -14645 cal/mol. The “Fold Inhibition” value is 0.9.

B2: 289-378: the uninhibited DNA binding domain construct of ERG (289-378) (protein, UniProt P11308 289-378, looked up, fragment)
chain: QLDPYQILGPTSSRLANPGSGQIQLWQFLLELLSDSSNSSCITWEGTNGEFKMTDPDEVARRWGERKSKPNMNYDKLSRALRYYYDKNIM
In the case of B2, the Stoichiometry is 1.04, the ΔG was -9852 cal/mol, the ΔH is recorded as 4851 cal/mol and the “−TΔS” value is -14703 cal/mol. Also, the “Fold Inhibition” value is 1.0.

B3: 289-388: ERG truncation construct, residues 289-388 (protein, UniProt P11308 289-388, looked up, fragment)
chain: QLDPYQILGPTSSRLANPGSGQIQLWQFLLELLSDSSNSSCITWEGTNGEFKMTDPDEVARRWGERKSKPNMNYDKLSRALRYYYDKNIMTKVHGKRYAY
With B3, the Stoichiometry is recorded as 0.99, the ΔG is -9795 cal/mol, the ΔH is 5024 cal/mol and the “−TΔS” value was -14819 cal/mol. Also, the “Fold Inhibition” value is on record as 1.1.

B4: 272-388: the auto-inhibited construct of ERG (272-388) (protein, UniProt P11308 272-388, looked up, fragment)
chain: AAQPSPSTVPKTEDQRPQLDPYQILGPTSSRLANPGSGQIQLWQFLLELLSDSSNSSCITWEGTNGEFKMTDPDEVARRWGERKSKPNMNYDKLSRALRYYYDKNIMTKVHGKRYAY
B4: the Stoichiometry is 0.98, the ΔG was -8967 cal/mol, the ΔH is reported as 4924 cal/mol and the “−TΔS” value is -13891 cal/mol. The “Fold Inhibition” value is 4.8.

B5: 1-462: ERG construct, residues 1-462 (protein, UniProt P11308 1-462, looked up, fragment)
chain: MASTIKEALSVVSEDQSLFECAYGTPHLAKTEMTASSSSDYGQTSKMSPRVPQQDWLSQPPARVTIKMECNPSQVNGSRNSPDECSVAKGGKMVGSPDTVGMNYGSYMEEKHMPPPNMTTNERRVIVPADPTLWSTDHVRQWLEWAVKEYGLPDVNILLFQNIDGKELCKMTKDDFQRLTPSYNADILLSHLHYLRETPLPHLTSDDVDKALQNSPRLMHARNTGGAAFIFPNTSVYPEATQRITTRPDLPYEPPRRSAWTGHGHPTPQSKAAQPSPSTVPKTEDQRPQLDPYQILGPTSSRLANPGSGQIQLWQFLLELLSDSSNSSCITWEGTNGEFKMTDPDEVARRWGERKSKPNMNYDKLSRALRYYYDKNIMTKVHGKRYAYKFDFHGIAQALQPHPPESSLYKYPSDLPYMGSYHAHPQKMNFVAPHPPALPVTSSSFFAAPNPYWNSPTGGIYP
As to B5, the Stoichiometry is on record as 1.05, the ΔG was -9164 cal/mol, the ΔH was 4205 cal/mol and the “−TΔS” value is -13369 cal/mol. For the same molecule, the “Fold Inhibition” value is recorded as 3.3.

B6: 210-462: ERG truncation construct, residues 210-462 (protein, UniProt P11308 210-462, looked up, fragment)
chain: KALQNSPRLMHARNTGGAAFIFPNTSVYPEATQRITTRPDLPYEPPRRSAWTGHGHPTPQSKAAQPSPSTVPKTEDQRPQLDPYQILGPTSSRLANPGSGQIQLWQFLLELLSDSSNSSCITWEGTNGEFKMTDPDEVARRWGERKSKPNMNYDKLSRALRYYYDKNIMTKVHGKRYAYKFDFHGIAQALQPHPPESSLYKYPSDLPYMGSYHAHPQKMNFVAPHPPALPVTSSSFFAAPNPYWNSPTGGIYP
Take B6: the Stoichiometry is 1.1, the ΔG is -9269 cal/mol, the ΔH was 4303 cal/mol and the “−TΔS” value was -13572 cal/mol. Also, the “Fold Inhibition” value is 2.8.

B7: 289-412: ERG truncation construct, residues 289-412 (protein, UniProt P11308 289-412, looked up, fragment)
chain: QLDPYQILGPTSSRLANPGSGQIQLWQFLLELLSDSSNSSCITWEGTNGEFKMTDPDEVARRWGERKSKPNMNYDKLSRALRYYYDKNIMTKVHGKRYAYKFDFHGIAQALQPHPPESSLYKYP
Take B7: the Stoichiometry is recorded as 0.98, the ΔG was -9670 cal/mol, the ΔH is on record as 5062 cal/mol and the “−TΔS” value was -14732 cal/mol. In addition, the “Fold Inhibition” value is 1.4.

B8: 272-412: ERG truncation construct, residues 272-412 (protein, UniProt P11308 272-412, looked up, fragment)
chain: AAQPSPSTVPKTEDQRPQLDPYQILGPTSSRLANPGSGQIQLWQFLLELLSDSSNSSCITWEGTNGEFKMTDPDEVARRWGERKSKPNMNYDKLSRALRYYYDKNIMTKVHGKRYAYKFDFHGIAQALQPHPPESSLYKYP
In the case of B8, the Stoichiometry was 0.94, the ΔG was -9281 cal/mol, the ΔH is recorded as 4900 cal/mol and the “−TΔS” value was -14181 cal/mol. In addition, the “Fold Inhibition” value is 2.7.
